Laboratory results reported in PMC2430599, “Solution Structure and Sugar-Binding Mechanism of Mouse Latrophilin-1 RBL: a 7TM Receptor-Attached Lectin-Like Domain” (Structure(London, England:1993), 2008).
These are yes or no findings as the source states them, for the method shown.

How the values were obtained:
[1] = molecular target: RBL domain of mouse Latrophilin-1 (residues 30–134) (mouse) (UniProt Q80TR1); assay: condition: high protein concentrations (NMR samples 1–2 mM unless otherwise noted); NMR protein dynamics; 30°C, NMR samples 1–2 mM protein in 20 mM sodium phosphate pH 7.0, 2 mM EDTA, unless otherwise noted; both purified
[2] = molecular target: RBL domain of mouse Latrophilin-1 (residues 30–134) (mouse) (UniProt Q80TR1); assay: AUC; sedimentation equilibrium, 4°C, 20 μM protein in PBS, 25,000 rpm for 48 hr, absorbance at 280 nm, fit to an ideal monodisperse model; both purified

binding [1]: no binding | binding [2]: no binding (tested: 20 μM)
B1: RBL domain of mouse Latrophilin-1 (residues 30–134) (domain or fragment, UniProt Q80TR1 30-134)
chain: LPFGLMRRELACEGYPIELRCPGSDVIMVENANYGRTDDKICDADPFQMENVQCYLPDAFKIMSQRCNNRTQCVVVAGSDAFPDPCPGTYKYLEVQYDCVPYIFV
